Data published in patent US20140038203A1, “METHODS FOR DETECTING OR PREDICTING KIDNEY DISEASE” (MUSC FOUNDATION FOR RESEARCH DEVELOPMENT, priority 2012, published 2014).

Experiment: RRT study: LC-MS/MS urinary proteomics, AKI after cardiac surgery, RRT vs No RRT
Parameters: species or system human
Conditions: for Mean No RRT / Mean RRT: urine; for Mean No RRT: AKI patients who did not require RRT (n=6); for Mean RRT: AKI patients who required RRT (n=6)
[1] = direction of urinary abundance, patients who did vs did not require RRT/dialysis
[2] = patients who did vs did not require RRT/dialysis, read with the Up or Down column
[3] = direction of differential abundance, patients who did vs did not require RRT/dialysis
[4] = patients who did vs did not require RRT/dialysis
[5] = RRT vs No RRT, positive = elevated in RRT group

Row | Substance | Up or Down [1] | Mean Fold Change [2] | also measured
1 | Epididymal secretory protein E1 | Up | 4.918 | 
2 | Kallikrein-1 |  |  | Up or Down [3]: Down; Mean Fold Change [4]: 2.957
3 | Hemoglobin subunit gamma-1 | Up | 6.761 | 
4 | Cathepsin Z | Up | 1.524 | 
5 | Vitronectin | Up | 1.072 | 
6 | Lumican | Up | 2.49 | 
7 | Cathepsin D | Up | 1.016 | 
8 | Hemopexin: urinary protein, Uniprot P02790 | Up | 3.79 | Mean Fold Change [5]: 3.79; Mean No RRT: 7.94 normalized spectral counts; Mean RRT: 30.11 normalized spectral counts
9 | Mesothelin | Up |  | 
10 | Hemicentin-1 |  |  | Up or Down [3]: Down; Mean Fold Change [4]: 1.331
11 | Cathepsin L1 | Up | 1.345 | 
12 | Basement membrane-specific heparan sulfate proteoglycan core protein |  |  | Up or Down [3]: Down; Mean Fold Change [4]: 1.005
13 | Ig lambda-2 chain C regions | Up | 1.517 | 
14 | Metallothionein-2: urinary protein, Uniprot P02795 (+2) | Up | 22.46 | Mean Fold Change [5]: 13.47; Mean No RRT: 1.43 normalized spectral counts; Mean RRT: 19.25 normalized spectral counts
15 | Insulin-like growth factor-binding protein 7 | Up | 1.134 | 
16 | Hemoglobin subunit alpha | Up | 3.508 | 
17 | Collagen alpha-1(I) chain | Up | 1.009 | 
18 | Ig kappa chain C region | Up | 1.325 | 

Row | Substance | Up or Down [1] | Mean Fold Change [2] | also measured
19 | Ig lambda chain V-I region HA | Up | 1.023 | 
20 | Peptidoglycan recognition protein 1 |  |  | Up or Down [3]: Down; Mean Fold Change [4]: 1.267
21 | Ig heavy chain V-III region GAL | Up | 11.56 | 
22 | Ig kappa chain V-I region Wes | Up | 2.048 | 
23 | Antithrombin-III | Up | 3.245 | 
24 | ADM | Up | 2.795 | 
25 | Transthyretin | Up | 14.52 | 
26 | Collagen alpha-3(VI) chain | Up | 1.604 | 
27 | Titin |  |  | Up or Down [3]: Down; Mean Fold Change [4]: 1.044
28 | Ig kappa chain V-I region Scw | Up | 2.197 | 
29 | Submaxillary gland androgen-regulated protein 3B (QRGPRGPYPPGPLAPPQPFGPGFVPPPPPPPYGPGRIPPPPPAPYGPGIFPPPPPQP; UniProt P02814 23-79, looked up) |  |  | Up or Down [3]: Down; Mean Fold Change [4]: 1.078
30 | Lysosomal alpha-glucosidase | Up | 1.002 | 
31 | Metalloproteinase inhibitor 1 | Up |  | 
32 | G-protein coupled receptor family C group 5 member C |  |  | Up or Down [3]: Down; Mean Fold Change [4]: 1.059
33 | Immunoglobulin J chain | Up | 1.102 | 
34 | Tyrosine-protein kinase receptor UFO |  |  | Up or Down [3]: Down; Mean Fold Change [4]: 2.196
35 | Serotransferrin: urinary protein, Uniprot P02787 | Up | 6.502 | Mean Fold Change [5]: 6.502; Mean No RRT: 72.61 normalized spectral counts; Mean RRT: 472.14 normalized spectral counts
